Record: PubChem BioAssay AID720505 (Drosophila RNAi Screening Center, 2013)

Screen: 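Genes needed for store-operated calcium entry in fly cells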 (primary screen)
Cells: Drosophila S2R+ cells
Knock-down reagent: long dsRNA against Drosophila genes
Challenge: thapsigargin (2 µM) in calcium-free buffer to empty internal stores, then 2 mM calcium added back
Measurement: 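Fluo-4 signal in 384-well plates read on a FLIPR after thapsigargin (2 µM, calcium-free) store depletion and 2 mM calcium add-back; unnormalised mean endpoint per well; screen run twice, selected wells retested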
Reading the numbers: calcium signal: higher = more calcium entry after store depletion
Hit rule: 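Knock-downs counted as hits when calcium entry dropped relative to STIM1 positive and Rho1 negative controls present on each plate; roughly 1500 genes called, with reductions of differing size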
Calls: active = called as lowering calcium entry; inactive = not called
In all, the deposit lists about 20,000 reagents; shown is an unselected part of those that have a named target and a result. Over the whole deposit, about 2,100 (10%) are marked active. 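Raw plate signals without normalisation; calls rest on control-based scores that were not deposited; replicate 2 separates called from uncalled poorly.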 Unmarked entries are inactive. The record does not give: the amount of reagent, the time to read-out.

Knock-down of Ilp2 (Insulin-like peptide 2) [DRSC10968] resulted in: calcium signal, replicate 1 = 105; calcium signal, replicate 2 = 88.1.
CG15208 [DRSC19654] gave calcium signal, replicate 1 = 103; calcium signal, replicate 2 = 94.3.
CG7857 [DRSC10925] showed calcium signal, replicate 1 = 109; calcium signal, replicate 2 = 133.
Depletion of CG9452 [DRSC11075] came out at: calcium signal, replicate 1 = 126; calcium signal, replicate 2 = 180.
Against CG9452 [DRSC23344], the values are calcium signal, replicate 1 = 106; calcium signal, replicate 2 = 158.
With knock-down of Prdm13 (PR/SET domain 13) [DRSC09970], the screen gave calcium signal, replicate 1 = 110; calcium signal, replicate 2 = 86.2.
Against CG17271 [DRSC15210], the entry reads calcium signal, replicate 1 = 159; calcium signal, replicate 2 = 171.
Knock-down of CG17271 [DRSC22629] came out at: calcium signal, replicate 1 = 126; calcium signal, replicate 2 = 213.
With knock-down of CG17271 [DRSC22982], the screen gave calcium signal, replicate 1 = 127; calcium signal, replicate 2 = 114.
Knock-down of CG5023 [DRSC15697] gave: calcium signal, replicate 1 = 132; calcium signal, replicate 2 = 142.
With knock-down of CG6418 [DRSC10633] the results were calcium signal, replicate 1 = 90.4; calcium signal, replicate 2 = 121.
CG6287 [DRSC02947] gave calcium signal, replicate 1 = 108; calcium signal, replicate 2 = 85.5.
After knock-down of CG13532 [DRSC04174] the results were calcium signal, replicate 1 = 134; calcium signal, replicate 2 = 272.
CG15356 [DRSC00386] showed calcium signal, replicate 1 = 122; calcium signal, replicate 2 = 127.
For ergic53 [DRSC11389] the deposit lists calcium signal, replicate 1 = 108; calcium signal, replicate 2 = 62.6.
After knock-down of CG4009 [DRSC15536], the screen gave calcium signal, replicate 1 = 154; calcium signal, replicate 2 = 244.
Silencing of LUBEL (Linear Ubiquitin E3 ligase) [DRSC02141] gave: calcium signal, replicate 1 = 161; calcium signal, replicate 2 = 113.
With knock-down of Usf [DRSC18129] the results were calcium signal, replicate 1 = 156; calcium signal, replicate 2 = 118.
CG15024 [DRSC08478] scored calcium signal, replicate 1 = 81.7; calcium signal, replicate 2 = 67.1.
For CG14770 [DRSC17947], the values are calcium signal, replicate 1 = 60.8 (active); calcium signal, replicate 2 = 84.5.
Depletion of gammaSnap2 (gamma Soluble NSF attachment protein 2) [DRSC15992] came out at: calcium signal, replicate 1 = 114; calcium signal, replicate 2 = 96.7.
For Hml (Hemolectin) [DRSC11183] the deposit lists calcium signal, replicate 1 = 125; calcium signal, replicate 2 = 109.
For CG13920 [DRSC08389], the entry reads calcium signal, replicate 1 = 199; calcium signal, replicate 2 = 118.
After knock-down of CG6700 [DRSC02980], the record shows calcium signal, replicate 1 = 87.9; calcium signal, replicate 2 = 120.
For Sgf29 (SAGA-associated factor 29kDa) [DRSC04076], the values are calcium signal, replicate 1 = 148; calcium signal, replicate 2 = 98.1.
After knock-down of Pcl (Polycomblike) [DRSC07503], the screen gave calcium signal, replicate 1 = 154; calcium signal, replicate 2 = 109.
For Prx2 (Peroxiredoxin 2) [DRSC20256], the entry reads calcium signal, replicate 1 = 126; calcium signal, replicate 2 = 97.4.
Depletion of MFS16 (Major Facilitator Superfamily Transporter 16) [DRSC04051] gave: calcium signal, replicate 1 = 113; calcium signal, replicate 2 = 75.1.

Active calls, among the entries above:
CG14770 [DRSC17947] — calcium signal, replicate 1 = 60.8 (active); calcium signal, replicate 2 = 84.5
